Source: PubChem BioAssay AID1259308 (NCATS, 2017)

Screen: 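Genes whose loss raises luciferase production in HEK293 cells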 (primary screen)
System: human HEK293 embryonic kidney cells stably expressing firefly luciferase (HEK-CMV-Luc2-Hygro)
Reagents: single siRNA against human genes, 0.8 pmol siRNA per well
Time to read-out: 72 h
Measured: 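Reporter luminescence and viable-cell signal on separate replicate plates, given as percent of non-targeting control and median/MAD z-scores, plus per-cell luciferase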
Scale: total luciferase, z-score and total luciferase, % of control: higher = more reporter protein produced
Call rule: 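An siRNA counts as active if its total luciferase robust z-score exceeds 3; genes with two or more such siRNAs out of three were retested with fresh siRNAs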
Meaning of the calls: active = raised luciferase; inactive = no rise
The whole screen tested about 59,000 reagents; this is an unselected part. About 1,510 of all reagents (2.6%) were called active. 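Calls use total luciferase alone and ignore viability, so some active siRNAs may act by altering cell number.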 Reagents against one gene are numbered here. Further read-outs or replicates are left out here. Reagent sequences are not shown.

After knock-down of C16orf46 #1, the record shows total luciferase, z-score 1.2; total luciferase, % of control 106; inactive. C16orf46 #2 gave total luciferase, z-score -0.068; total luciferase, % of control 80.5; inactive. C16orf46 #3 showed total luciferase, z-score 0.845; total luciferase, % of control 98.7; inactive. Knock-down of LRRC37A3 #1 gave: total luciferase, z-score -0.336; total luciferase, % of control 75.2; inactive. For LRRC37A3 #2 the deposit lists total luciferase, z-score 0.532; total luciferase, % of control 92.5; inactive. LRRC37A3 #3 showed total luciferase, z-score -0.931; total luciferase, % of control 63.4; inactive.

For GPALPP1 #1, the values are total luciferase, z-score 2.03; total luciferase, % of control 122; inactive. Depletion of GPALPP1 #2 resulted in: total luciferase, z-score 1.38; total luciferase, % of control 109; inactive. With knock-down of GPALPP1 #3, the screen gave total luciferase, z-score -0.637; total luciferase, % of control 69.2; inactive. After knock-down of TBCB #1, the screen gave total luciferase, z-score 0.395; total luciferase, % of control 89.7; inactive. After knock-down of TBCB #2, the record shows total luciferase, z-score -1.36; total luciferase, % of control 54.9; inactive. Silencing of TBCB #3 resulted in: total luciferase, z-score -2.29; total luciferase, % of control 36.3; inactive.

After knock-down of TRABD2A #1 the results were total luciferase, z-score 0.19; total luciferase, % of control 85.7; inactive. With knock-down of TRABD2A #2 the results were total luciferase, z-score 0.696; total luciferase, % of control 95.7; inactive. TRABD2A #3 scored total luciferase, z-score 1.16; total luciferase, % of control 105; inactive.

Part of the list above, set out differently.
Gene,reagent,"total luciferase, z-score","total luciferase, % of control",Outcome
TBCB,2,-1.36,54.9,inactive
TBCB,3,-2.29,36.3,inactive
TRABD2A,1,0.19,85.7,inactive

Next results follow.
Silencing of BEX4 #1 came out at: total luciferase, z-score -1.68; total luciferase, % of control 48.4; inactive. Depletion of BEX4 #2 resulted in: total luciferase, z-score 0.322; total luciferase, % of control 88.3; inactive. BEX4 #3 scored total luciferase, z-score 0.028; total luciferase, % of control 82.4; inactive. Depletion of CAPNS2 #1 gave: total luciferase, z-score -0.465; total luciferase, % of control 72.6; inactive. For CAPNS2 #2 the deposit lists total luciferase, z-score -0.0458; total luciferase, % of control 81; inactive. With knock-down of CAPNS2 #3, the record shows total luciferase, z-score 0.163; total luciferase, % of control 85.1; inactive.

Silencing of HIF3A #1 gave: total luciferase, z-score -1.75; total luciferase, % of control 47.1; inactive. For HIF3A #2, the entry reads total luciferase, z-score 0.317; total luciferase, % of control 88.2; inactive. For HIF3A #3 the deposit lists total luciferase, z-score 0.969; total luciferase, % of control 101; inactive. Against DHX38 #1, the entry reads total luciferase, z-score 2.17; total luciferase, % of control 125; inactive. For DHX38 #2, the entry reads total luciferase, z-score 0.00567; total luciferase, % of control 82; inactive. Knock-down of DHX38 #3 came out at: total luciferase, z-score 0.413; total luciferase, % of control 90.1; inactive.

After knock-down of ERG #1 the results were total luciferase, z-score 3.02; total luciferase, % of control 142; active. Knock-down of ERG #2 came out at: total luciferase, z-score -0.565; total luciferase, % of control 70.7; inactive. Silencing of ERG #3 came out at: total luciferase, z-score -0.663; total luciferase, % of control 68.7; inactive. Against CARNS1 #1, the entry reads total luciferase, z-score 2.11; total luciferase, % of control 124; inactive. CARNS1 #2 showed total luciferase, z-score -0.37; total luciferase, % of control 74.5; inactive. For CARNS1 #3 the deposit lists total luciferase, z-score 0.0699; total luciferase, % of control 83.3; inactive.
